According to PMC2984460:
These are yes or no findings as the source states them, for the method shown. In cells and extracts the contact can be indirect. Tags and fused reporters may be left off the sequences shown.

By UniProt entry, the sequences of proteins in these tests, tags left out.
UniProt P08659: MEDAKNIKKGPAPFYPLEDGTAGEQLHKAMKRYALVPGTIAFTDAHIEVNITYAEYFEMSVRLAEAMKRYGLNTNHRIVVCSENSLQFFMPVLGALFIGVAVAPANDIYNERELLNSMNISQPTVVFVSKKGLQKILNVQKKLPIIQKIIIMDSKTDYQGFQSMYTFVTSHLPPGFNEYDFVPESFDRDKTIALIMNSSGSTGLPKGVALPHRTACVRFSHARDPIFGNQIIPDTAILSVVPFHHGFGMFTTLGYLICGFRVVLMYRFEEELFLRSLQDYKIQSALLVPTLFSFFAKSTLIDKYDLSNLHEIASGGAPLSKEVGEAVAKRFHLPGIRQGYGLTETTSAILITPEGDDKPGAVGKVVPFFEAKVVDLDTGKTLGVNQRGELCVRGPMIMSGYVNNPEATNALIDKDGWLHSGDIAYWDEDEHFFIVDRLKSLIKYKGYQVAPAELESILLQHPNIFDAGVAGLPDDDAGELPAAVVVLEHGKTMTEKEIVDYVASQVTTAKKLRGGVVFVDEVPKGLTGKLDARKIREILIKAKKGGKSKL

Target: T1, GST::SEM-5 (C. elegans) (UniProt P29355)
T1 sequence: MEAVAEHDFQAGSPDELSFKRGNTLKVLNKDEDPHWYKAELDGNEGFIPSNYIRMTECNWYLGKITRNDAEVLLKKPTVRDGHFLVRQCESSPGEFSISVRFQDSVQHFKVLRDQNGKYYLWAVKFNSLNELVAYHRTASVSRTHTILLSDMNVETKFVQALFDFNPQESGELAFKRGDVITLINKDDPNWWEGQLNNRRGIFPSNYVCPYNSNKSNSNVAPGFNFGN
Test: pull-down; in vitro labelled protein from a reticulocyte lysate transcription/translation reaction pulled down with purified GST or GST fusion proteins (~200 ng per pull down); input set at 5%; only the target purified

## labelled luciferase (from UniProt P08659 1-550) (enzyme)
  binding: no binding (tested: ~200 ng GST fusion protein per pull down)
